Test results taken from the supplement of paper PMC3334620.
In all, about 33,000 sequences were measured (“E-score (-0.5 to 0.5)”: median about -0.016, highest 2% from about 0.3 on). Some of the results follow.

The sequences below were run against T1, Yer184c (UniProt P39961) (assay: PBM E-score (8-mer binding enrichment) (E-score (-0.5 to 0.5)); higher = stronger / more preferred TF binding). Conditions: protein concentration: 100 nM; construct: GST-full length.
T1 sequence: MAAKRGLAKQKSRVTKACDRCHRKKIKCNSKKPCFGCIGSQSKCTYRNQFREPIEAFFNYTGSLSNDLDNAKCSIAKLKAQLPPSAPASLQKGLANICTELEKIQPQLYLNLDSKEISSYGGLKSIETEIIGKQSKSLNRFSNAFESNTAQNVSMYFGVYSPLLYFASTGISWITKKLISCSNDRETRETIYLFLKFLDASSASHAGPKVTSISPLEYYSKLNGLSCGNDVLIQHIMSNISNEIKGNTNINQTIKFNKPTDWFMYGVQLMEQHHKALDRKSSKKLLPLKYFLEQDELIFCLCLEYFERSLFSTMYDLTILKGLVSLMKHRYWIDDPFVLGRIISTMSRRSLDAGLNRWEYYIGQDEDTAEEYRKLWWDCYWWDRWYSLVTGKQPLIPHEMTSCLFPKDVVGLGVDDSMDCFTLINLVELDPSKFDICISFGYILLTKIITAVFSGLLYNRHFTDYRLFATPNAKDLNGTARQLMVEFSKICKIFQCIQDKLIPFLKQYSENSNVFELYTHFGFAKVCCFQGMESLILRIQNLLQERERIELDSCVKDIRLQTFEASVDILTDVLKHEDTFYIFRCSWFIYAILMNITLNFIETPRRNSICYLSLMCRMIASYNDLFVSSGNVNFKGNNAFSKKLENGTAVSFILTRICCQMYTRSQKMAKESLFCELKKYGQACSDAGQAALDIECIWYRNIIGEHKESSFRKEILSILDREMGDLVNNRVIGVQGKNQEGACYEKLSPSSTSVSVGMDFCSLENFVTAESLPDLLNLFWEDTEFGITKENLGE
Summary of the method: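 GST-tagged yeast TFs (full-length or DNA-binding domain) were made by PURExpress in vitro transcription/translation and applied at about 100-200 nM to universal all-10-mer Agilent arrays. The arrays were made double-stranded by primer extension, on fresh or once-stripped slides. Bound protein was detected with fluorescent anti-GST, and scans were normalised with masliner. Each ungapped eight-base word, pooled with its reverse complement, received an E-score (modified Wilcoxon-Mann-Whitney statistic) from the Universal PBM Analysis Suite.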

Sequence | PBM E-score
GGAGAGCC | -0.292
AACGTGTC | -0.125
CCGCTCAC | -0.124
ATCCTGCC | -0.283
ACGTTGGG | -0.177
GCTTACAC | -0.0906
GGAACAAC | 0.243
ATAGACGA | 0.00012
CCATGAAG | 0.111
GCGCGCCC | -0.161
GCGCACTA | -0.0674
AAGTGAAA | 0.122
CTACAACA | -0.0277
ACTATTGC | 0.0958
AGGATGTC | -0.0865
GAAACATA | 0.13
CGATGACA | 0.0958
CTGGCGGA | -0.254
CTAGCCCA | -0.218
CGCTCACA | -0.124
AGGACCTG | -0.174
AGTTCAGA | 0.102
ATCAGCTA | -0.0273
CCTATAGG | -0.175
CTTGCTGA | -0.125

Sequence | PBM E-score
CACCGCCC | -0.13
CGCGAGTC | -0.07
CGAGTGTA | -0.0537
ACACGGAT | 0.272
CTAGGACA | 0.0564
ACAATACT | 0.117
AAGCTTCA | 0.0388
CTTAATCA | 0.201
AACGTTGC | -0.0255
AGCAGCGA | 0.00724
ACGACATA | -0.196
GCAAACCC | -0.122
GTAAGGGA | -0.114
AAACGGGT | 0.032
AAAATTCC | 0.239
ACTTGCCT | -0.151
CACGAAGC | -0.11
GATGCGAC | -0.114
GTTTCCCA | 0.0693
CGCGGCAC | 0.267
CCGAGGAC | 0.0882
GAAACGTA | 0.0378
GTGGCGAA | 0.104
GAACAGCA | 0.123
ACAGTCGT | -0.189

Sequence | PBM E-score
ATGACAAC | 0.233
AAGCGACT | -0.00129
GCTCAACA | -0.0131
TGCATAAA | 0.23
GGTTGTCA | -0.0206
AGGACCTC | -0.106
AAGACTCT | 0.0451
GCATTTGA | 0.0784
AGTTCCGA | 0.313
ACTTCGTC | 0.0888
ACGGGGTA | -0.151
CCGACTTC | -0.243
ATATGACA | 0.062
CTACCACA | -0.16
ATGTTGGG | -0.306
CATGGCGA | -0.0913
CCGCCTGC | 0.0616
CCACTCAA | -0.00608
GGGGGAGA | -0.284
ATTCGACA | -0.0581
AGCCGCGG | 0.419
AGGACGGC | -0.0658
GCTAGGCA | -0.12
ACACCTTC | 0.0962
AGGAAGGA | -0.247

Sequence | PBM E-score
TACAGCAA | 0.0296
AACCCTTA | -0.0377
CGGGTTCC | 0.246
AACTGAAC | 0.0915
CCAGCTGA | -0.0242
CATAAAAC | -0.0501
CTACGCAG | -0.0366
CGTCTGGC | 0.0178
ATCGCAGC | -0.0331
GCTGTAAA | 0.0629
ATACACAA | 0.139
AAACGGGG | 0.0448
CCGGCAGC | 0.254
AGGCTCCG | 0.246
GAATTTAA | 0.169
GTCGCCAA | -0.0646
TCACAACA | 0.126
AGTGGCTC | -0.21
CATCTGTA | -0.077
AAGAACTA | 0.156
AGGTACAG | -0.297
CACCAACA | -0.23
GATATTGA | 0.0825
TCGAGTCA | -0.161
TAGAAACA | 0.0611

Sequence | PBM E-score
CGTCTTAG | -0.116
ATAGCAGG | 0.0116
AACTCAGG | -0.0713
CGCTGTAG | -0.0114
ACGCGGAG | 0.143
CGGTCCCC | -0.142
GACCAGAC | -0.0869
AGGAGATA | -0.134
GGGCCGTA | 0.072
AATAATTC | 0.215
ATCCCTGC | -0.0479
ACCCAGAA | 0.158
AAATTAGG | 0.233
AGGACTAC | -0.393
ATTTAGGA | 0.0767
AAGAGTCC | -0.109
CAGGCACC | -0.3
GCCTCTGA | -0.25
ATAATGAA | 0.237
CTCGTCAG | -0.0979
CCGCTCTC | -0.0794
ACATGCCA | -0.165
CGCCTTGC | -0.152
TGACGTAA | -0.0158
AGGATTTG | 0.0747

Sequence | PBM E-score
GAGCGGTA | 0.0436
CTTCGTCC | -0.137
ACAAAAGA | 0.0849
ATGGGTAC | -0.25
TAAAGCGA | 0.0559
AGTTTAGG | -0.0901
AACCATCT | -0.229
CACGATGC | -0.163
TCTTGTCA | 0.0655
CGATAATA | 0.255
TAAATTTA | 0.311
AACGTCCG | 0.115
GATCACTA | 0.0673
CGTCCGTC | -0.188
AGTCCGCA | 0.019
TGGTGTAA | -0.0943
CACTCCCA | -0.154
AAACTACG | 0.0299
AACTAAAA | 0.145
AACGTATA | -0.0905
CGCATGAG | -0.284
ATTACAAT | -0.0245
ATTCGTCG | 0.193
CGTTCGAA | 0.164
CCCCTCGC | -0.152

A run of entries from the list above, for reference:
Sequence | PBM E-score
CCGCTCTC | -0.0794
ACATGCCA | -0.165
CGCCTTGC | -0.152
TGACGTAA | -0.0158
AGGATTTG | 0.0747
GAGCGGTA | 0.0436

Next part

Sequence | PBM E-score
AATGCAGA | 0.0377
GGACTACA | -0.0688
GCTGATAA | 0.183
CGGAAAAC | 0.349
CATAGATC | -0.0937
ACGCAACA | 0.0928
GATCACCA | -0.0157
CTCAGCAC | -0.0675
CACCAGCA | -0.172
ATGGCTGG | -0.269
ACATCCGT | 0.167
CCGGGGTC | 0.17
ATCAAGGC | -0.103
GTGGAGAA | -0.0473
TACGCGTA | 0.0413
CCTTCGCA | -0.0813
GTTCCCTA | 0.00458
ACTACGAA | 0.125
GCTACCTA | -0.109
GTGATGCA | 0.0597
AAACGGCC | 0.194
CGGGTTGA | -0.017
